Out of some 78,000 compounds screened, about 1,800 (2.3%) were called active. Inconclusive means that the source gave no clear call. Such entries were picked first, then a sample of the others. Cut-off read from the data, not from the text of the source: active = inhibition above about 30%; inconclusive = mostly about 10% to 28%; inactive = weaker than that.
biological target: Interleukin-1 receptor-like 1 (Homo sapiens) (UniProt Q01638); assay: blocks human ST2 binding to IL-33, primary screen, biochemical, AlphaLISA (AID 1259354); settings: AlphaLISA ST2-Fc/biotin-IL-33 interaction, 1 h; at 17 µM, active compounds read high

Chains of the proteins cited; added tags and fusions are not shown. Lines headed by an entry give the natural chain unless they say otherwise; changes in a name come on top.
UniProt Q01638: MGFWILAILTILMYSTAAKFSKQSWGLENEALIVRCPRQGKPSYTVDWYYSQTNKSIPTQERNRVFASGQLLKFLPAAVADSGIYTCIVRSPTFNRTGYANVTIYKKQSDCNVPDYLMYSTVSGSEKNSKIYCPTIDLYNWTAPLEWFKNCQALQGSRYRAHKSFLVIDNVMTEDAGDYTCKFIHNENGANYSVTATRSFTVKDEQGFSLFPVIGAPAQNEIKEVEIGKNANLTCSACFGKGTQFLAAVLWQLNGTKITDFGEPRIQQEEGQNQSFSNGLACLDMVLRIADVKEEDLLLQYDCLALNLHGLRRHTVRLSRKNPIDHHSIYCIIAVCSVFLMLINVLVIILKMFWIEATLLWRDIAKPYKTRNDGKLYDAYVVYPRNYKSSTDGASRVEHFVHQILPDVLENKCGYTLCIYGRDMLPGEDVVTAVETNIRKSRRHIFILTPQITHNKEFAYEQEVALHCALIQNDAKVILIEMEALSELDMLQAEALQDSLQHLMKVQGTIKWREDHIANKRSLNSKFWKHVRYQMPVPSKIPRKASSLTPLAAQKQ

Question: With C/C(=C\C(=O)c1ccccc1)NCc1ccc(F)cc1 as the compound, how does the inhibition read?
Answer: inconclusive: 17%

Question: O=C(CSc1nc2c(c(=O)n1-c1ccc(Cl)cc1)SCC2)N1CCCC1 was tested. Which inhibition did it give?
Answer: inconclusive: 10%

Question: With Cc1ccc(Cn2nc(C)c(NC(=O)c3cc(C)on3)c2C)cc1 as the compound, how does the inhibition read?
Answer: inactive

Question: For COc1cc(-c2ccc(NC(=O)c3ccco3)c(OC)c2)ccc1NC(=O)c1ccco1, which inhibition is on record?
Answer: active: 31%

Question: With O=C(O)c1ccc(-c2nccn2C2CCN(Cc3ccccn3)CC2)cc1 as the compound, how does the inhibition read?
Answer: inconclusive: 16%

Question: CCCCOC(=O)C1=C(C)Nc2nnnn2C1c1ccccc1C (stereo not given) was tested. Which inhibition did it give?
Answer: inactive

Question: For O=c1cc(-c2ccc(O)c(O)c2)oc2ccc(O)cc12, which inhibition is on record?
Answer: inactive

Question: How did the inhibition turn out when C=CC[C@H]1CC(C)=C[C@H](CC=C)N1C(=O)CCN1CCCC1=O was run?
Answer: inconclusive: 15%

Question: How did the inhibition turn out when O=[N+]([O-])c1cc([N+](=O)[O-])c2cn(-c3ccccc3)nc2c1 was run?
Answer: inactive

Question: How did the inhibition turn out when O=C1NC(=O)/C(=C\c2ccc(O)c(I)c2)N1 was run?
Answer: inconclusive: 10%

Question: For O=C(NCc1ccc(F)cc1)c1cc(-c2ccc(Cl)cc2)on1, which inhibition is on record?
Answer: inactive

Question: CSc1ccc(-c2nc(CN3CCC4(CC3)N=C(C)NC4=O)c(C)o2)cc1 was tested. Which inhibition did it give?
Answer: inconclusive: 10%

Question: With N#Cc1ccccc1Cn1c(=O)n(CCCC(=O)NCc2ccco2)c(=O)c2sccc21 as the compound, how does the inhibition read?
Answer: inconclusive: 24%

Question: With Cn1c(=NC(=O)CSCC(=O)Nc2nccs2)sc2ccccc21 as the compound, how does the inhibition read?
Answer: inconclusive: 12%

Question: Which inhibition does the source give for COc1cccc(N2CCN(C3CCC(C)C3)CC2)c1 (stereo not given) here?
Answer: active: 31%

Question: With COc1ccc(-c2nc[nH]c2-c2ccccc2)cc1Cn1cncn1 as the compound, how does the inhibition read?
Answer: inactive

Question: How did the inhibition turn out when O=C1CSC(c2ccc(Br)cc2)N1C1CCCCC1 (stereo not given) was run?
Answer: inactive

Question: COc1cc([N+](=O)[O-])ccc1NC(=O)c1cnc2n(c1=O)CCS2 was tested. Which inhibition did it give?
Answer: inconclusive: 12%

Question: CCCC(NC(=O)C1CNC1)c1ccccc1 (stereo not given) was tested. Which inhibition did it give?
Answer: inconclusive: 13%

Question: With Cc1ccc(CN(C(=O)c2cc(N)ccn2)C2CC2)s1 as the compound, how does the inhibition read?
Answer: inconclusive: 11%

Question: Which inhibition does the source give for O=C(O)c1cc2cc(Cc3cccnc3)ccc2o1 here?
Answer: inconclusive: 19%

Question: For COCC(=O)Nc1cccc(-c2ccc3c(c2)OCCO3)c1, which inhibition is on record?
Answer: inactive

Question: Which inhibition does the source give for C=CCNC(=O)N1CC[C@H]2CC(=O)N(Cc3cccnc3)CC[C@H]2C1 here?
Answer: inactive

Question: Which inhibition does the source give for COc1ccc(NC(=O)c2oc3ccccc3c2NC(=O)COc2ccc(F)cc2)cc1 here?
Answer: inactive

Question: COc1cccc(COC2CN(Cc3ccccn3)C(=O)CN(C(=O)c3ccc4c(c3)OCO4)C2)c1 (stereo not given) was tested. Which inhibition did it give?
Answer: inconclusive: 10%

Question: For O=C(Nc1nc(-c2ccccc2)cs1)c1coc2ccccc2c1=O, which inhibition is on record?
Answer: inactive

Question: COc1ccc(/C=C2/C(=O)N(c3ccc(Br)cc3)N=C2C)cc1OC was tested. Which inhibition did it give?
Answer: inconclusive: 12%

Question: How did the inhibition turn out when CC(C)C1CN(C(=O)c2ccc(-n3cccn3)cc2)CCCN1CC1CC1 (stereo not given) was run?
Answer: inconclusive: 11%

Question: With NC(=O)[C@H](Cc1cccs1)NC(=O)[C@@H]1[C@@H](NC(=O)Nc2ccc(F)cc2F)CCN1C(=O)c1cnccn1 as the compound, how does the inhibition read?
Answer: inconclusive: 10%

Question: For CN(C)c1cccc(Oc2nnnn2[C@H]2CO[C@H]3[C@@H]2OC[C@@H]3NC(=O)CC(C)(C)CC(=O)O)c1, which inhibition is on record?
Answer: inconclusive: 14%

Question: Which inhibition does the source give for COc1ccc(CCN2C(=O)CCC2(C)C(=O)NCc2cccnc2)cc1OC (stereo not given) here?
Answer: inconclusive: 12%

Question: How did the inhibition turn out when CCN1CCCC1CNC(=O)c1cc(Cl)ccc1OC1CCN(C2CCCC2)CC1 (stereo not given) was run?
Answer: inactive

Question: Nc1cc(C(=O)N2CCN(C(=O)c3ccccc3)CC2)[nH]n1 was tested. Which inhibition did it give?
Answer: inconclusive: 16%

Question: Which inhibition does the source give for COC(=O)C1=C(NC(=O)c2ccc(Cl)cc2)CCS1 here?
Answer: inactive

Question: Cc1ccc(S(=O)(=O)NC[C@H]2O[C@@H](CC(=O)Nc3ccccc3)[C@H](O)[C@@H]2O)cc1 was tested. Which inhibition did it give?
Answer: inactive

Question: With CCn1ncc(CNC(=O)c2ccc([N+](=O)[O-])cc2Cl)c1C as the compound, how does the inhibition read?
Answer: inconclusive: 12%

Question: For O=C1NC(=O)/C(=C\c2ccc(OCc3ccccc3)cc2)S1, which inhibition is on record?
Answer: inconclusive: 19%

Question: With COc1ccc(NC(=O)O[C@@H]2CO[C@H]3[C@@H]2OC[C@@H]3NC(=O)Nc2cccc(C#N)c2)cc1 as the compound, how does the inhibition read?
Answer: active: 66%

Question: How did the inhibition turn out when Cc1ccc(N2C(=O)C(N3C(=O)c4cccc([N+](=O)[O-])c4C3=O)C2c2cccs2)cc1F (stereo not given) was run?
Answer: active: 32%

Question: With CCOc1ccc(N2CC(NC(=O)Cc3cccs3)CC2=O)cc1 (stereo not given) as the compound, how does the inhibition read?
Answer: inactive

Question: COc1cc(-c2nnc3s/c(=C\c4ccccc4Cl)c(=O)n23)cc(OC)c1OC was tested. Which inhibition did it give?
Answer: inconclusive: 17%

Question: With COc1ccc(-n2nc3c(c2NC(=O)c2ccc(C(C)(C)C)cc2)CS(=O)C3)cc1 (stereo not given) as the compound, how does the inhibition read?
Answer: inactive

Question: Which inhibition does the source give for O=C(COc1ccc2c(c1)C(=O)CC1(CCCCC1)O2)NCc1ccc(F)cc1 here?
Answer: inactive

Question: How did the inhibition turn out when O=C(/C=C/c1ccc(Cl)cc1)Nc1cc2cc(Br)ccc2oc1=O was run?
Answer: inconclusive: 14%

Question: Which inhibition does the source give for Cc1c(CNC(=O)C2CC3(CCNCC3)CN2)oc2ccccc12 (stereo not given) here?
Answer: inconclusive: 13%

Question: How did the inhibition turn out when N#CC1=C(N)Oc2cc(O)ccc2C1c1cccnc1 (stereo not given) was run?
Answer: inconclusive: 10%

Question: Which inhibition does the source give for CCOC(=O)c1ccc2c(c1)NC(=O)c1ccccc1S2 here?
Answer: inactive

Question: Cc1ccc(NC(=O)c2cc(I)ccc2Cl)c([N+](=O)[O-])c1 was tested. Which inhibition did it give?
Answer: inconclusive: 26%

Question: For Cc1cc(C)n(CC(C)NCc2noc(-c3ccc4c(c3)OCO4)n2)n1 (stereo not given), which inhibition is on record?
Answer: inactive

Question: With CCN(CC)[C@H]1[C@@H]2OC[C@@H](O2)[C@@H](NCc2ccccc2OC)[C@@H]1O as the compound, how does the inhibition read?
Answer: inconclusive: 12%

Question: CCN(C(=O)c1cnn(C(C)C)c1)C(C)CO (stereo not given) was tested. Which inhibition did it give?
Answer: inactive

Question: For Cc1ccc(S(=O)(=O)Cc2ccc(C(=O)NC3CCCCCCC3)o2)cc1, which inhibition is on record?
Answer: inconclusive: 11%

Question: How did the inhibition turn out when COc1cc(OC)c(N(C)C(=O)CCc2nc(-c3ccc(C)cc3)no2)cc1Cl was run?
Answer: inconclusive: 10%

Question: How did the inhibition turn out when CCc1ccccc1NC(=O)N1c2ccccc2Sc2ccccc21 was run?
Answer: inconclusive: 11%

Question: How did the inhibition turn out when COc1ccc(-c2nnc(NC(=O)c3ccc(S(=O)(=O)N4CCOCC4)cc3)o2)c(OC)c1 was run?
Answer: inconclusive: 11%

Question: How did the inhibition turn out when O=C(C1CC1)N1CCc2cc(Br)cc(S(=O)(=O)Nc3ccc(F)cc3)c21 was run?
Answer: inconclusive: 16%

Question: With O=C(NCC(F)(F)C(F)F)c1cccnc1 as the compound, how does the inhibition read?
Answer: inactive

Question: How did the inhibition turn out when COc1cccc(/C=C2/SC(=Nc3ccccc3Cl)NC2=O)c1OC was run?
Answer: active: 31%

Question: With COc1cccc2c(Nc3ccccc3)cc(C)nc12 as the compound, how does the inhibition read?
Answer: inconclusive: 15%

Question: Which inhibition does the source give for CC(C)Oc1ccc(-c2nc(C(N)=O)c3c(n2)n(-c2ccc(F)cc2)c(=O)n3C)cc1 here?
Answer: inactive

Reference: PubChem BioAssay AID1259354 (Paczesny and Yang Labs, IUPUI and University of Michigan, 2018)
